PubChem BioAssay AID1487 (National Center for Advancing Translational Sciences (NCATS), 2009)
Some of the results follow. The main result of the screen is listed elsewhere. These columns were measured beside it and carry no call. Compounds called inactive in the main read-out are mostly missing here. The note in brackets gives the kind of curve behind each potency; many fits are weak.

Test: qHTS Assay for Modulators of Lamin A Splicing
Conditions: HeLa LMNA splicing GFP/RFP minigene ratio, 48 h
How it was run: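 Read-out is the ratio of GFP to DsRed2 object intensity, acquired by 488 nm laser-scanning cytometry on HeLa lamin A-EGFP minigene reporter cells. Compound incubation 48 hrs at 37 °C in Opti-MEM with 2% FBS; DMSO 0.5% final.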

[1] = measured here: RFP viability control channel
[2] = measured here: GFP splicing reporter channel

## COCCCNC(=O)c1c(N)n(/N=C/c2ccccn2)c2nc3ccccc3nc12
[1]
  AC50: 10 µM [rising, partial curve, poor fit]

## COc1ccc(CNC(=O)C2CCCN(S(=O)(=O)c3cc(C)ccc3OC)C2)cc1 (configuration not stated)
[1]
  AC50: 14.1 µM [rising, single point]

## CC(=O)N(C(C)=O)N1C(=O)/C(=C/c2ccc(Cl)cc2)SC1=S
[1]
  AC50: 0.00316 µM [falling, full curve, poor fit]

## Cc1cc(-c2n[nH]c(=S)n2/N=C/C(Br)=C/c2ccccc2)n[nH]1
[1]
  AC50: 15.8 µM [rising, partial curve]

## CC[C@H](CO)NCCN[C@@H](CC)CO
[1]
  AC50: 0.0126 µM [rising, full curve, poor fit]

## COc1ccc(CC(=O)Nc2cccc(-c3csc(C)n3)c2)cc1
[1]
  AC50: 25.1 µM [rising, single point]

## Cc1cc(C)c(NC(=O)C[C@H](CC(=O)O)c2cccc3ccccc23)c(C(=O)N2CCC3(CCCC3)CC2)c1
[1]
  AC50: 0.00562 µM [falling, full curve, poor fit]

## O=S(=O)(c1ccc2ccccc2c1)N(CC(O)COCc1ccco1)c1ccccc1 (configuration not stated)
[2]
  AC50: 12.6 µM [rising, single point]
[1]
  AC50: 28.2 µM [rising, single point]

## Cc1c(Cl)ccc2sc(NC(=O)c3ccc(S(=O)(=O)N4CCCc5ccccc54)cc3)nc12
[2]
  AC50: 1.41 µM [rising, full curve]
[1]
  AC50: 3.16 µM [rising, partial curve]

## O=C(Nc1nnc(-c2ccc(F)cc2)o1)c1cc(Cl)sc1Cl
[2]
  AC50: 8.91 µM [rising, partial curve]
[1]
  AC50: 4.47 µM [rising, full curve]

## CCCCOC(=O)c1ccc(NC(=O)c2cc(Cl)c(Cl)cc2C(=O)O)cc1
[2]
  AC50: 0.708 µM [falling, partial curve, poor fit]

## CC(=O)c1c(C(C)=O)c(C)n(-c2nc(-c3ccc(C)c(C)c3)c(C)s2)c1C
[1]
  AC50: 12.6 µM [rising, partial curve, poor fit]

## COc1ccccc1CNc1cc(-c2ccccc2C(F)(F)F)ncn1
[2]
  AC50: 0.891 µM [falling, full curve]
[1]
  AC50: 1.26 µM [falling, partial curve]

## CCn1c(=O)cc(OCC(=O)Nc2ccc(OC)c(OC)c2)c2ccccc21
[2]
  AC50: 12.6 µM [falling, single point]

## CCOC(=O)c1ccc(NC(=O)c2cccc(S(=O)(=O)N3c4ccccc4CC3C)c2)s1 (configuration not stated)
[2]
  AC50: 17.8 µM [rising, single point]
[1]
  AC50: 31.6 µM [rising, single point]

## CSc1nccc(-c2cc(Cl)sc2Cl)n1
[1]
  AC50: 35.5 µM [falling, single point]

## O=C(CSc1nccn1Cc1ccccc1)NCc1ccc(F)cc1
[2]
  AC50: 0.708 µM [rising, single point]
[1]
  AC50: 0.708 µM [rising, partial curve, poor fit]

## CCn1c(SCc2ccccc2)nnc1-c1ccc(S(=O)(=O)N2CCCCC2)cc1
[1]
  AC50: 17.8 µM [rising, partial curve]

## COc1ccc(NC(=O)/C=C/c2cccc(F)c2)cn1
[2]
  AC50: 12.6 µM [rising, partial curve]
[1]
  AC50: 12.6 µM [rising, partial curve]

## C=CCNc1nc(Nc2ccc(OC)cc2OC)nc(OCC)n1
[2]
  AC50: 15.8 µM [rising, single point]
[1]
  AC50: 17.8 µM [rising, single point]

## O=C(CNS(=O)(=O)c1ccc(Br)s1)NCC1COc2ccccc2O1 (configuration not stated)
[2]
  AC50: 17.8 µM [rising, single point]
[1]
  AC50: 15.8 µM [rising, single point]

## O=C(NCc1ccco1)c1cc2nc(-c3ccc4c(c3)OCO4)cc(C(F)(F)F)n2n1
[2]
  AC50: 12.6 µM [rising, partial curve]
[1]
  AC50: 10 µM [rising, partial curve]

## Oc1ccc(-c2nc3ccccn3c2NCc2ccco2)cc1
[2]
  AC50: 14.1 µM [rising, single point]
[1]
  AC50: 11.2 µM [rising, single point]

## O=C(c1ccc(CSc2ccccc2)cc1)N1CCN(c2ccccc2)CC1
[2]
  AC50: 35.5 µM [falling, single point]

## Oc1ccc(COCc2ccccc2)c2cccnc12
[2]
  AC50: 1.26 µM [falling, full curve]
[1]
  AC50: 0.562 µM [falling, full curve]

## COC(=O)c1ccc2nc(C(F)(F)F)[nH]c2c1
[2]
  AC50: 20 µM [rising, partial curve, poor fit]
[1]
  AC50: 15.8 µM [rising, partial curve]

## c1cncc(Nc2nc(-c3cccnc3)cs2)c1
[2]
  AC50: 0.355 µM [rising, single point]

## O=c1c2nnn(-c3ccc(Cl)cc3)c2ncn1Cc1ccccn1
[2]
  AC50: 3.55 µM [falling, full curve, poor fit]
[1]
  AC50: 4.47 µM [falling, full curve, poor fit]

## C/C(=C\C(=O)Nc1nccs1)c1ccccc1
[2]
  AC50: 35.5 µM [rising, single point]
[1]
  AC50: 35.5 µM [rising, single point]

## COC(=O)c1c(NC(=O)CSc2nnc(C)c(=O)[nH]2)sc(C)c1C
[2]
  AC50: 0.0158 µM [falling, full curve, poor fit]
[1]
  AC50: 0.0126 µM [falling, full curve, poor fit]

## CCn1c(SCC(=O)Nc2sc3c(c2C#N)CCC(C(C)(C)C)C3)nnc1-c1ccco1 (configuration not stated)
[2]
  AC50: 17.8 µM [falling, partial curve, poor fit]

## CCc1nc(SCC(=O)c2ccccc2)c2ccccc2n1
[2]
  AC50: 14.1 µM [falling, single point]
[1]
  AC50: 5.01 µM [falling, partial curve, poor fit]

## O=S(=O)(NC1CC1)c1ccc(S(=O)(=O)N2CCCC(c3nc(-c4cccnc4)no3)C2)cc1 (configuration not stated)
[1]
  AC50: 12.6 µM [rising, single point]

## Cc1ccc(OCCOc2ccc(Cl)cc2Cl)c([N+](=O)[O-])n1
[2]
  AC50: 14.1 µM [rising, single point]
[1]
  AC50: 15.8 µM [rising, partial curve]
